These results are taken from the supplement of paper PMC12819154, “High-throughput peptide-centric local stability assay extends protein–ligand identification to membrane proteins, tissues and bacteria” (Nature Structural & Molecular Biology, 2025).

Protein sequences, listed by entry. Tags and fused reporters are not part of them. Lines headed by an entry give the natural chain unless they say otherwise; changes in a name come on top.
UniProt O35704: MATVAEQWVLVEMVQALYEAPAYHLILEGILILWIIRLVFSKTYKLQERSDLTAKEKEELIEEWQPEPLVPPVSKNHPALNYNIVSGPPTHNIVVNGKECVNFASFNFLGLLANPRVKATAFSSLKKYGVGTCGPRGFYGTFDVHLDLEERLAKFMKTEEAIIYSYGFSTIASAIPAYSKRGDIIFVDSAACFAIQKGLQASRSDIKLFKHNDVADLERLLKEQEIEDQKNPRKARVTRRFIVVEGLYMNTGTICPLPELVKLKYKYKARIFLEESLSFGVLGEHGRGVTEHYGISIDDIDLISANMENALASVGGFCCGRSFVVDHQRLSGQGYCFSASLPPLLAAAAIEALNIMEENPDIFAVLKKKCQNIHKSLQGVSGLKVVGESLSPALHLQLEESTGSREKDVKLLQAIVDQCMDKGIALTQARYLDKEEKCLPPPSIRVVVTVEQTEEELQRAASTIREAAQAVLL
UniProt O88322: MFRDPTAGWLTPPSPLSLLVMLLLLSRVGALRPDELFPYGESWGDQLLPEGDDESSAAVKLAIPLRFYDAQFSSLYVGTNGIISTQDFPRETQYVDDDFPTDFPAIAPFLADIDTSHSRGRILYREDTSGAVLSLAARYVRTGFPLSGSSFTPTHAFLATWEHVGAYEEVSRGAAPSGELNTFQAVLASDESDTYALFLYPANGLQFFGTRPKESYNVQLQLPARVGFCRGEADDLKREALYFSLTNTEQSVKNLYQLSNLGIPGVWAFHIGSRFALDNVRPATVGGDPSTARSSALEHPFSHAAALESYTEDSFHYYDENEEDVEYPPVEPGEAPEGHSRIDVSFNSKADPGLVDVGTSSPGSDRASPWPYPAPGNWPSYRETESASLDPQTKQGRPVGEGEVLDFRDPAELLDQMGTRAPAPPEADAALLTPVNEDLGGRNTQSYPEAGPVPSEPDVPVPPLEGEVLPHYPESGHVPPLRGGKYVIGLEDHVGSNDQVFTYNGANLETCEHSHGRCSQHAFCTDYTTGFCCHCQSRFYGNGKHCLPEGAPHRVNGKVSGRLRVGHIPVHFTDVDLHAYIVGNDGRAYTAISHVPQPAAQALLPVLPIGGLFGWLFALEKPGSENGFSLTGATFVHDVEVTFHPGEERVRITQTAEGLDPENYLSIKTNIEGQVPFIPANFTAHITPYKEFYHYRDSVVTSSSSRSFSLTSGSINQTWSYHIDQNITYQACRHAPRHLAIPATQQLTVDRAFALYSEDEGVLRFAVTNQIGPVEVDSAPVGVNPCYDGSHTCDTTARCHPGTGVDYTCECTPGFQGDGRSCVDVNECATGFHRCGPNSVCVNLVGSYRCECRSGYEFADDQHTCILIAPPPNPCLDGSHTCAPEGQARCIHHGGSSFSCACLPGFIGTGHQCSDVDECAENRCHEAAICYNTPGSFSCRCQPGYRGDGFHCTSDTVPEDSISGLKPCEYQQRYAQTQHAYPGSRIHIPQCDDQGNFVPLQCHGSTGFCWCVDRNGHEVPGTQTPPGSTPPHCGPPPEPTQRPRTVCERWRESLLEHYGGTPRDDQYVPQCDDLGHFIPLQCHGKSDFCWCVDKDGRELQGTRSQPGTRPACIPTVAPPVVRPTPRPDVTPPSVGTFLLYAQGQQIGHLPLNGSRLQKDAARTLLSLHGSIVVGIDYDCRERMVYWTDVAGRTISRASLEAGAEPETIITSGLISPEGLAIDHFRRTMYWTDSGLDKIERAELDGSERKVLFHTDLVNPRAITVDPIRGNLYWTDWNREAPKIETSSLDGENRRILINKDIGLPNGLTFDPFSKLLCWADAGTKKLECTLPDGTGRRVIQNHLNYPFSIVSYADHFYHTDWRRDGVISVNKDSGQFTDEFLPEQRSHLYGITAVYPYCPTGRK
UniProt O88844, whole entry: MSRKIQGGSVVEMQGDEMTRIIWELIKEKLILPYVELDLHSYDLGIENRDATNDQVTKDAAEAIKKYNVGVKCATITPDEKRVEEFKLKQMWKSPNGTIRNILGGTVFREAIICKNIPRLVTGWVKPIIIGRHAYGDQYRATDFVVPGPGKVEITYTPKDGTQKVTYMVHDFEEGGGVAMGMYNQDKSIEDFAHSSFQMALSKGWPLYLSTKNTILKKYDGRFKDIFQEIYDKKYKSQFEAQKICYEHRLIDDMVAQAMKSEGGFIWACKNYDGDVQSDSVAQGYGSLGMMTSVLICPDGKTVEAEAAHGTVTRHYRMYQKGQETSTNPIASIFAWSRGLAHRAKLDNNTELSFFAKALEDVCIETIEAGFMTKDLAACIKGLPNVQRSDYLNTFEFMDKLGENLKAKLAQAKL
UniProt O35955: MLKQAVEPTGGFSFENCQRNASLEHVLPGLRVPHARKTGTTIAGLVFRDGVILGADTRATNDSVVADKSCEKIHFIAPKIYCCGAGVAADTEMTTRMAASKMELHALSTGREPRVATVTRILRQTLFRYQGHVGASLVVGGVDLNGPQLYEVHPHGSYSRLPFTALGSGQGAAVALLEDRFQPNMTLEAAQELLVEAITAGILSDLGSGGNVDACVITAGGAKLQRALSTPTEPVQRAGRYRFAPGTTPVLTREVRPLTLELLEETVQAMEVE
UniProt O35598: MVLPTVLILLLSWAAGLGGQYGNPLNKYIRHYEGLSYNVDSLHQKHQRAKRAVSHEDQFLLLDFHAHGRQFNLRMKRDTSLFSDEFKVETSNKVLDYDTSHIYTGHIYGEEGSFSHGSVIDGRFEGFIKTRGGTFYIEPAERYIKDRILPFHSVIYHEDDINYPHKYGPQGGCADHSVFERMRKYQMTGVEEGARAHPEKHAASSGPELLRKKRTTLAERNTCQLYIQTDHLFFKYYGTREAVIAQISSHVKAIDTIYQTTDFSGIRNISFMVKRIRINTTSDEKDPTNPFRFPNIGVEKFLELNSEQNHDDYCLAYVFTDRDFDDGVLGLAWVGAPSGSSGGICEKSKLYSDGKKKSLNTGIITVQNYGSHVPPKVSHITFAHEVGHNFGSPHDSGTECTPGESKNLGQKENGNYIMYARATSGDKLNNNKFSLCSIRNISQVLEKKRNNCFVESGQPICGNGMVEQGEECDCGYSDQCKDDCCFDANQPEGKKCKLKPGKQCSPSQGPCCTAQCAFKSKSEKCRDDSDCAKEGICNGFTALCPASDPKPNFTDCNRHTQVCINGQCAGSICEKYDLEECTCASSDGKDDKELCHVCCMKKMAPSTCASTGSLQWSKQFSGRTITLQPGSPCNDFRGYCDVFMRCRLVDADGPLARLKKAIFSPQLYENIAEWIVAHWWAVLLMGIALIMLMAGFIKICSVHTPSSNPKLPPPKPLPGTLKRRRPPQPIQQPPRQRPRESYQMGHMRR
UniProt O70479: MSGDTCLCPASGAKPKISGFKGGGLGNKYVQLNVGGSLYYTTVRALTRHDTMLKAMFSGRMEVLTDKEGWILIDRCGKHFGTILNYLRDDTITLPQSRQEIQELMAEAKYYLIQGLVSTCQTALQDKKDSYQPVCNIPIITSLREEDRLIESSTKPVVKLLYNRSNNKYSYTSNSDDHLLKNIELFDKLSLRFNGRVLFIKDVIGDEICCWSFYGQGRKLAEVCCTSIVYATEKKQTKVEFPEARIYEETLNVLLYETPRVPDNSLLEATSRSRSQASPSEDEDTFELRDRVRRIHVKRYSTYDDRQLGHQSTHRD
UniProt O70311: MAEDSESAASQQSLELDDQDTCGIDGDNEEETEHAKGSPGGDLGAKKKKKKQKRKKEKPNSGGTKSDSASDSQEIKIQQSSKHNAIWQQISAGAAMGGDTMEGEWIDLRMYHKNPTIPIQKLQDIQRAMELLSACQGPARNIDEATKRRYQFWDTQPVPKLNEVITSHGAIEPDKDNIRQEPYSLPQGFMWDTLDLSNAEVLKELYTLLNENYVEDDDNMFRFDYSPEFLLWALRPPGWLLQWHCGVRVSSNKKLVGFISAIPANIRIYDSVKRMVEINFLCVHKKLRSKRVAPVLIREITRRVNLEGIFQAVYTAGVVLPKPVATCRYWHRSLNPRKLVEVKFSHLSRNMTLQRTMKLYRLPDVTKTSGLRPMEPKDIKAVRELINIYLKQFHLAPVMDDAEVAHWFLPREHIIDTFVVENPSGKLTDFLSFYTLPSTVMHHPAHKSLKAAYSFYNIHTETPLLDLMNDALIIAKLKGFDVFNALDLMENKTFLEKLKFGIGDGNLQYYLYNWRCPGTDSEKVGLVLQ
UniProt O70165: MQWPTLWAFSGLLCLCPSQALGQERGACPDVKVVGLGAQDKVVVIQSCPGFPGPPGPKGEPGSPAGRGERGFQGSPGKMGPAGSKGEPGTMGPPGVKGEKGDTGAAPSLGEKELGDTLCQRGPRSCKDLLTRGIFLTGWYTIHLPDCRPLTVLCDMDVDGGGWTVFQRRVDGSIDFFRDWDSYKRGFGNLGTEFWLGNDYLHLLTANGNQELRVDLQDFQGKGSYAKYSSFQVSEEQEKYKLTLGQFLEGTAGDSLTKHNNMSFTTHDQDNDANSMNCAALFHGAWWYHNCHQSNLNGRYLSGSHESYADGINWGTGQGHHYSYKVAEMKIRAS
UniProt O54786: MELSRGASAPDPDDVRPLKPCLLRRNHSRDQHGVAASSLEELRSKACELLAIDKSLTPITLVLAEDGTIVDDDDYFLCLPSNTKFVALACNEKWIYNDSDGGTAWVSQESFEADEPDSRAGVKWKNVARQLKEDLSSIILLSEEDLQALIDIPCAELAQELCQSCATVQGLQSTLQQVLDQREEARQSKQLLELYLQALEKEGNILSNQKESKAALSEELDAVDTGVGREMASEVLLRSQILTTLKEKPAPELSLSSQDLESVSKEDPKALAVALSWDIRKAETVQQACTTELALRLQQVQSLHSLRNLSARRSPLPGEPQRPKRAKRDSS
UniProt O54828: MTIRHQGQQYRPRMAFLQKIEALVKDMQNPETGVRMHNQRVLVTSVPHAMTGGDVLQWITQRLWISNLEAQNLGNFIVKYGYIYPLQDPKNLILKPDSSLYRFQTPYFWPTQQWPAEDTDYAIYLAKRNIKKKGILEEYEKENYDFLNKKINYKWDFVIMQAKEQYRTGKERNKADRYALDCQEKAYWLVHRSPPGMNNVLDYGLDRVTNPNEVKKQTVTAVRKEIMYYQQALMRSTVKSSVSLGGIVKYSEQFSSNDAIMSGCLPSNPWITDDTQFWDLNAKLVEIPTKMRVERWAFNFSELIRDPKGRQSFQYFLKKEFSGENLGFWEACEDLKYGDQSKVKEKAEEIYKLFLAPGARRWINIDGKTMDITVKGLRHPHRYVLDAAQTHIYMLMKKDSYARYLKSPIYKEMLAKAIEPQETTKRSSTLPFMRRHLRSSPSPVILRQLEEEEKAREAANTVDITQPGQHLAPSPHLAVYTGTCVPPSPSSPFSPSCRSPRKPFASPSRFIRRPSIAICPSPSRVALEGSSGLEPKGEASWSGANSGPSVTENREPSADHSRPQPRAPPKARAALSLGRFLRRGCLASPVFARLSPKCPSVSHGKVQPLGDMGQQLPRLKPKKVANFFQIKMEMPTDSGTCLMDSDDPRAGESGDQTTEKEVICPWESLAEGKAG

The list shows a part of the results. Most values lie at the level of the controls, where differences are scatter.

Compound in this test: CN[C@@H]1C[C@H]2O[C@@](C)([C@@H]1OC)n1c3ccccc3c3c4c(c5c6ccccc6n2c5c31)C(=O)NC4 [staurosporine]
As to the kind of experiment: log2 fold change of tryptic peptide abundance, ligand vs vehicle (limited proteolysis) (log2 ratio); higher = more trypsin-susceptible (destabilized). The settings on record: ligand concentration: 20 uM; sample: mouse liver crude lysate; replicate design: treated separately.
As for “UniProt O35704 (peptide sequence: HNDVADLER, peptide start residue: 211)”, the log2 fold change stood at 0.34.

Take “UniProt O88322 (peptide sequence: DDQYVPQCDDLGHFIPLQCHGK, peptide start residue: 1064)”: the log2 fold change was -0.191.

For the target “UniProt O88844 (peptide sequence: DIFQEIYDKK, peptide start residue: 225)”, the log2 fold change came out at 0.162.

On to “UniProt O35955 (peptide sequence: FAPGTTPVLTR, peptide start residue: 243)”, for which the log2 fold change is 0.129.

As to “UniProt O35598 (peptide sequence: ESYQMGHMR, peptide start residue: 740)”, the log2 fold change is -0.0968.

For the target “UniProt O70479 (peptide sequence: RYSTYDDR, peptide start residue: 299)”, the log2 fold change is 0.031.

Turning to “UniProt O70311 (peptide sequence: MYHKNPTIPIQK, peptide start residue: 110)”, the log2 fold change is -0.0792.

For “UniProt O70165 (peptide sequence: VVGLGAQDK, peptide start residue: 33)”, the log2 fold change is -0.242.

Take “UniProt O55135 (peptide sequence: HGLLVPNNTTDQELQHIR, peptide start residue: 68)”: the log2 fold change was -0.244.

Consider “UniProt O54786 (peptide sequence: FVALACNEK, peptide start residue: 85)”, for which the log2 fold change is -0.485.

As for “UniProt O54828 (peptide sequence: KVANFFQIK, peptide start residue: 623)”, the log2 fold change was found to be 0.184.
